Measurements reported in PubChem BioAssay AID493246 (Drosophila RNAi Screening Center, 2011)
Aim: 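Genome-wide search for dsRNAs that reduce cell number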 (primary screen). Cells: Drosophila Kc and S2R+ cells. Reagents: long dsRNA against Drosophila genes. Measured: 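Cell number per well after knock-down, printed as raw plate values; calls were based on per-plate z-scores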. Reading the numbers: Kc cell number and S2R+ cell number: higher = more cells remaining. Active means: 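Counted as a hit if cell number falls by a z-score of at least 3 within its plate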.
The screen tested about 21,000 reagents; below is a random part of those that have a named target and a result. Of all reagents, 429 (2%) were called active. 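Values are raw and not normalised between plates; calls rest on per-plate z-scores that were not deposited.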 Unmarked entries are inactive. A plus sign joins genes that one reagent is predicted to hit. Not given: the amount of reagent, the time to read-out.

The opening 4 entries, ahead of the listing:
gene knocked down | DRSC id | Kc cell number, rep 1 | Kc cell number, rep 2 | S2R+ cell number, rep 1 | S2R+ cell number, rep 2
Rnmt (RNA guanine-7 methyltransferase) | DRSC03558 | 1.54e6 | 1.60e6 | 1.26e6 | 1.36e6
AOX1 (Aldehyde oxidase 1) | DRSC15339 | 1.60e6 | 1.61e6 | 1.41e6 | 1.49e6
Mgat3 | DRSC01305 | 1.56e6 | 1.58e6 | 1.04e6 | 1.18e6
slow (slowdown) | DRSC08589 | 1.40e6 | 1.42e6 | 1.33e6 | 1.27e6

The list itself, from the start:
gene knocked down | DRSC id | Kc cell number, rep 1 | Kc cell number, rep 2 | S2R+ cell number, rep 1 | S2R+ cell number, rep 2
Rnmt (RNA guanine-7 methyltransferase) | DRSC03558 | 1.54e6 | 1.60e6 | 1.26e6 | 1.36e6
AOX1 (Aldehyde oxidase 1) | DRSC15339 | 1.60e6 | 1.61e6 | 1.41e6 | 1.49e6
Mgat3 | DRSC01305 | 1.56e6 | 1.58e6 | 1.04e6 | 1.18e6
slow (slowdown) | DRSC08589 | 1.40e6 | 1.42e6 | 1.33e6 | 1.27e6
slow (slowdown) | DRSC08590 | 1.63e6 | 1.49e6 | 1.10e6 | 1.19e6
Fip1 (Factor interacting with poly(A) polymerase 1) | DRSC12147 | 1.60e6 | 1.55e6 | 1.21e6 | 1.25e6
CG3356 | DRSC04358 | 1.34e6 | 1.44e6 | 1.23e6 | 1.21e6
CG31661 | DRSC00296 | 1.78e6 | 1.79e6 | 1.13e6 | 1.27e6
PH4alphaMP (prolyl-4-hydroxylase-alpha MP) | DRSC17031 | 1.41e6 | 1.43e6 | 9.69e5 | 1.04e6
CG14380 | DRSC14840 | 1.37e6 | 1.41e6 | 1.05e6 | 1.15e6
Cox17 (Cytochrome c oxidase copper chaperone COX17) | DRSC20145 | 1.79e6 | 1.76e6 | 1.16e6 | 1.30e6
jet (jetlag) | DRSC03116 | 1.26e6 | 1.38e6 | 5.70e5 | 3.70e5
Pex2 (Peroxin 2) | DRSC10770 | 1.28e6 | 1.42e6 | 1.32e6 | 1.15e6
CG10555 | DRSC17748 | 1.49e6 | 1.42e6 | 9.50e5 | 1.02e6
TwdlY (TweedleY) | DRSC19153 | 1.17e6 | 1.30e6 | 1.06e6 | 1.18e6
Snmp2 (Sensory neuron membrane protein 2) | DRSC10228 | 1.54e6 | 1.75e6 | 1.21e6 | 1.27e6
Snmp2 (Sensory neuron membrane protein 2) | DRSC10843 | 1.47e6 | 1.53e6 | 1.12e6 | 1.19e6
CG32855 | DRSC13131 | 1.55e6 | 1.76e6 | 1.11e6 | 1.26e6
mRpS21 (mitochondrial ribosomal protein S21) | DRSC12965 | 1.42e6 | 1.55e6 | 1.05e6 | 1.15e6
coro (Coronin) | DRSC05007 | 1.52e6 | 1.54e6 | 1.13e6 | 1.23e6
CG14488 | DRSC06460 | 1.86e6 | 1.78e6 | 1.32e6 | 1.58e6
Zaf1 (ZAD and Architectural Function 1) | DRSC16121 | 1.49e6 | 1.46e6 | 1.33e6 | 1.35e6
odd (odd skipped) | DRSC00832 | 1.12e6 (active) | 1.01e6 | 5.03e5 | 5.88e5
alka (alkaliphile) | DRSC06136 | 1.56e6 | 1.66e6 | 1.28e6 | 1.46e6
tey (teyrha-meyrha) | DRSC11042 | 1.34e6 | 1.49e6 | 9.78e5 | 1.08e6
CG7789 | DRSC16312 | 4.86e5 | – | 8.51e5 | –
CG10359 | DRSC08156 | 1.31e6 | 1.42e6 | 1.26e6 | 1.16e6
sp3 (spermathreecae) | DRSC16354 | 1.46e6 | 1.44e6 | 1.03e6 | 1.14e6
CG31076 | DRSC16017 | 1.52e6 | 1.52e6 | 9.87e5 | 1.09e6
Art6 (Arginine methyltransferase 6) | DRSC16583 | 1.32e6 | 1.46e6 | 1.17e6 | 1.29e6
mRpS18C (mitochondrial ribosomal protein S18C) | DRSC16538 | 1.41e6 | 1.42e6 | 9.89e5 | 1.02e6
Mocs2A + Mocs2B | DRSC14219 | 1.40e6 | 1.49e6 | 1.00e6 | 1.09e6
CG18273 | DRSC18150 | 1.54e6 | 1.55e6 | 1.00e6 | 1.12e6
CG18273 | DRSC18505 | 5.48e5 | – | 8.37e5 | –
CG12182 | DRSC08142 | 1.59e6 | 1.76e6 | 1.37e6 | 1.43e6
CG14722 | DRSC14944 | 1.62e6 | 1.72e6 | 1.18e6 | 1.25e6
Cpr47Eg (Cuticular protein 47Eg) | DRSC07330 | 1.54e6 | 1.58e6 | 1.20e6 | 1.24e6
CG8160 | DRSC07086 | 1.28e6 | 1.37e6 | 1.11e6 | 1.21e6
CG32846 | DRSC08012 | 1.51e6 | 1.62e6 | 1.13e6 | 1.20e6
Alp12 (Alkaline phosphatase 12) | DRSC02515 | 1.53e6 | 1.64e6 | 1.27e6 | 3.79e5
akirin | DRSC11000 | 1.22e6 | 1.38e6 | 7.89e5 | 7.71e5
Pgant9 (Polypeptide N-Acetylgalactosaminyltransferase 9) | DRSC05621 | 6.23e5 | – | 7.53e5 | –
Pgant9 (Polypeptide N-Acetylgalactosaminyltransferase 9) | DRSC06584 | 1.68e6 | 1.67e6 | 1.18e6 | 1.28e6
Pgant9 (Polypeptide N-Acetylgalactosaminyltransferase 9) | DRSC07185 | 1.74e6 | 1.69e6 | 1.29e6 | 1.43e6
Pgant9 (Polypeptide N-Acetylgalactosaminyltransferase 9) | DRSC07186 | 1.82e6 | 1.80e6 | 1.30e6 | 1.44e6
Pgant9 (Polypeptide N-Acetylgalactosaminyltransferase 9) | DRSC07187 | 1.95e6 | 2.00e6 | 1.20e6 | 1.42e6
Pgant9 (Polypeptide N-Acetylgalactosaminyltransferase 9) | DRSC07189 | 1.73e6 | 1.75e6 | 1.18e6 | 1.39e6
CG6763 | DRSC16110 | 1.40e6 | 1.40e6 | 1.02e6 | 1.13e6
CG34125 | DRSC00850 | 1.53e6 | 1.53e6 | 1.05e6 | 1.21e6
shv (shriveled) | DRSC00640 | 1.50e6 | 1.55e6 | 1.09e6 | 1.21e6
SIDL (Shal Interactor of Di-Leucine Motif) | DRSC16077 | 1.50e6 | 1.55e6 | 1.26e6 | 1.36e6
lectin-46Ca | DRSC06612 | 1.50e6 | 1.46e6 | 1.10e6 | 1.09e6
bol (boule) | DRSC08964 | 1.41e6 | 1.46e6 | 1.16e6 | 1.30e6
bol (boule) | DRSC10444 | 1.59e6 | 1.57e6 | 1.20e6 | 1.13e6
bol (boule) | DRSC11329 | 1.54e6 | 1.52e6 | 1.24e6 | 1.17e6
Lsm10 | DRSC06250 | 1.54e6 | 1.61e6 | 1.25e6 | 1.46e6
Ptip (PAX transcription activation domain interacting protein) | DRSC10660 | 1.73e6 | 1.76e6 | 1.13e6 | 1.34e6
Ptip (PAX transcription activation domain interacting protein) | DRSC11048 | 1.71e6 | 1.62e6 | 8.95e5 | 1.06e6
CG13022 | DRSC09902 | 1.31e6 | 1.47e6 | 1.33e6 | 1.42e6
